# PubChem BioAssay AID1224830, NIAID – 2016
# Assay: 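Regulators of TLR4 signalling towards TNF-alpha in macrophage-like cells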 (primary screen)
# Cells: human THP-1 monocytic leukaemia cells, TNF dual-luciferase reporter clone, PMA-differentiated to macrophage-like cells
# Reagents: siRNA pool against human genes, 50 nM
# Duration: LPS for 4 h, given about 3 days after siRNA transfection
# Conditions: bacterial LPS (TLR4 ligand), 10 ng/ml
# Measured: 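TNF firefly reporter luminescence divided by renilla, normalised to the plate median, then turned into a robust z-score for each replicate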
# Scale: TNF reporter robust z-score: higher = stronger TNF reporter response to LPS
# Hit rule: 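a well is active when its z-score exceeds 2.8 or falls below -1.5; control wells carry no call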
# The deposit covers about 18,000 reagents; shown is an unselected part. About 2,900 of them (16%) count as active. 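Calls are made per well; low scores hint the gene aids the LPS response, high scores that it dampens it.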 Entries without a mark were called inactive. Repeated entries: four replicate wells of each siRNA pool.
gene symbol,TNF reporter robust z-score
SARM1 (sterile alpha and TIR motif containing 1),1.98
SARM1 (sterile alpha and TIR motif containing 1),2.5
SARM1 (sterile alpha and TIR motif containing 1),0.6
SARM1 (sterile alpha and TIR motif containing 1),0.33
ZNF25 (zinc finger protein 25),0.22
ZNF25 (zinc finger protein 25),0.39
ZNF25 (zinc finger protein 25),0.63
ZNF25 (zinc finger protein 25),0.01
PBDC1 (polysaccharide biosynthesis domain containing 1),-1.67 (active)
PBDC1 (polysaccharide biosynthesis domain containing 1),-0.98
PBDC1 (polysaccharide biosynthesis domain containing 1),-0.35
PBDC1 (polysaccharide biosynthesis domain containing 1),0.2
RBAK (RB associated KRAB zinc finger),0.06
RBAK (RB associated KRAB zinc finger),0.62
RBAK (RB associated KRAB zinc finger),0.34
RBAK (RB associated KRAB zinc finger),-0.47
KIF7 (kinesin family member 7),-0.93
KIF7 (kinesin family member 7),-1
KIF7 (kinesin family member 7),-1.78 (active)
KIF7 (kinesin family member 7),-1.02
CRACR2A (calcium release activated channel regulator 2A),-0.16
CRACR2A (calcium release activated channel regulator 2A),0.82
CRACR2A (calcium release activated channel regulator 2A),1.16
CRACR2A (calcium release activated channel regulator 2A),-0.1
FTCD (formimidoyltransferase cyclodeaminase),-0.26
FTCD (formimidoyltransferase cyclodeaminase),-0.4
FTCD (formimidoyltransferase cyclodeaminase),-0.48
FTCD (formimidoyltransferase cyclodeaminase),-1.02
BRF2 (BRF2 general transcription factor IIIB subunit),1.39
BRF2 (BRF2 general transcription factor IIIB subunit),2.11
BRF2 (BRF2 general transcription factor IIIB subunit),3.19 (active)
BRF2 (BRF2 general transcription factor IIIB subunit),2.28
TMEM106C (transmembrane protein 106C),-1.03
TMEM106C (transmembrane protein 106C),-0.08
TMEM106C (transmembrane protein 106C),-0.83
TMEM106C (transmembrane protein 106C),-0.95
WDR17 (WD repeat domain 17),-1.07
WDR17 (WD repeat domain 17),-0.79
WDR17 (WD repeat domain 17),-1.15
WDR17 (WD repeat domain 17),-0.98
DRGX (dorsal root ganglia homeobox),0.45
DRGX (dorsal root ganglia homeobox),2.57
DRGX (dorsal root ganglia homeobox),1.35
DRGX (dorsal root ganglia homeobox),0.34
CRACR2B (calcium release activated channel regulator 2B),-0.77
CRACR2B (calcium release activated channel regulator 2B),0.13
CRACR2B (calcium release activated channel regulator 2B),-0.6
TYW2 (tRNA wybutosine-synthesizing protein 2),0.41
TYW2 (tRNA wybutosine-synthesizing protein 2),2.15
TYW2 (tRNA wybutosine-synthesizing protein 2),1.75
TYW2 (tRNA wybutosine-synthesizing protein 2),1.41
SPPL2A (signal peptide peptidase like 2A),2.57
SPPL2A (signal peptide peptidase like 2A),0.69
SPPL2A (signal peptide peptidase like 2A),-0.36
SPPL2A (signal peptide peptidase like 2A),-0.18
AKR7A3 (aldo-keto reductase family 7 member A3),-0.4
AKR7A3 (aldo-keto reductase family 7 member A3),0.47
AKR7A3 (aldo-keto reductase family 7 member A3),-1.6 (active)
AKR7A3 (aldo-keto reductase family 7 member A3),-0.73
MRPL4 (mitochondrial ribosomal protein L4),-1
MRPL4 (mitochondrial ribosomal protein L4),-0.87
MRPL4 (mitochondrial ribosomal protein L4),-0.83
MRPL4 (mitochondrial ribosomal protein L4),-0.31
GSX1 (GS homeobox 1),-0.75
GSX1 (GS homeobox 1),-0.73
GSX1 (GS homeobox 1),-0.61
GSX1 (GS homeobox 1),-0.78
PPP4R2 (protein phosphatase 4 regulatory subunit 2),-0.38
PPP4R2 (protein phosphatase 4 regulatory subunit 2),-1.26
PPP4R2 (protein phosphatase 4 regulatory subunit 2),-1.65 (active)
PPP4R2 (protein phosphatase 4 regulatory subunit 2),0.03
"B3GALT5 (beta-1,3-galactosyltransferase 5)",-0.38
"B3GALT5 (beta-1,3-galactosyltransferase 5)",0.09
"B3GALT5 (beta-1,3-galactosyltransferase 5)",-0.28
"B3GALT5 (beta-1,3-galactosyltransferase 5)",0.44
ZSCAN26 (zinc finger and SCAN domain containing 26),-1.54 (active)
ZSCAN26 (zinc finger and SCAN domain containing 26),-0.82
ZSCAN26 (zinc finger and SCAN domain containing 26),-0.73
ZSCAN26 (zinc finger and SCAN domain containing 26),-1.06
MDM2 (MDM2 proto-oncogene),2.36
MDM2 (MDM2 proto-oncogene),2.68
MDM2 (MDM2 proto-oncogene),-0.31
MDM2 (MDM2 proto-oncogene),-0.24
"LSM11 (LSM11, U7 small nuclear RNA associated)",0.74
"LSM11 (LSM11, U7 small nuclear RNA associated)",0.68
"LSM11 (LSM11, U7 small nuclear RNA associated)",-0.3
"LSM11 (LSM11, U7 small nuclear RNA associated)",-1.23
SLC11A2,-0.96
SLC11A2,-0.72
SLC11A2,-0.82
SLC11A2,-1.02
CYP1B1 (cytochrome P450 family 1 subfamily B member 1),0.6
CYP1B1 (cytochrome P450 family 1 subfamily B member 1),0.02
CYP1B1 (cytochrome P450 family 1 subfamily B member 1),1.38
CYP1B1 (cytochrome P450 family 1 subfamily B member 1),2.97 (active)
TMEM160 (transmembrane protein 160),0.14
TMEM160 (transmembrane protein 160),2.2
TMEM160 (transmembrane protein 160),-0.1
TMEM160 (transmembrane protein 160),0.43
NR0B2 (nuclear receptor subfamily 0 group B member 2),-1.72 (active)
NR0B2 (nuclear receptor subfamily 0 group B member 2),-1.12
NR0B2 (nuclear receptor subfamily 0 group B member 2),-1.04
NR0B2 (nuclear receptor subfamily 0 group B member 2),-0.56
ALG1 (ALG1 chitobiosyldiphosphodolichol beta-mannosyltransferase),-0.24
ALG1 (ALG1 chitobiosyldiphosphodolichol beta-mannosyltransferase),0.65
ALG1 (ALG1 chitobiosyldiphosphodolichol beta-mannosyltransferase),0.21
ALG1 (ALG1 chitobiosyldiphosphodolichol beta-mannosyltransferase),-0.09
CAMLG (calcium modulating ligand),-1.25
CAMLG (calcium modulating ligand),-0.64
CAMLG (calcium modulating ligand),-0.55
CAMLG (calcium modulating ligand),-1.16

15 consecutive records already listed, for reference:
gene symbol,TNF reporter robust z-score
PPP4R2 (protein phosphatase 4 regulatory subunit 2),0.03
"B3GALT5 (beta-1,3-galactosyltransferase 5)",-0.38
"B3GALT5 (beta-1,3-galactosyltransferase 5)",0.09
"B3GALT5 (beta-1,3-galactosyltransferase 5)",-0.28
"B3GALT5 (beta-1,3-galactosyltransferase 5)",0.44
ZSCAN26 (zinc finger and SCAN domain containing 26),-1.54 (active)
ZSCAN26 (zinc finger and SCAN domain containing 26),-0.82
ZSCAN26 (zinc finger and SCAN domain containing 26),-0.73
ZSCAN26 (zinc finger and SCAN domain containing 26),-1.06
MDM2 (MDM2 proto-oncogene),2.36
MDM2 (MDM2 proto-oncogene),2.68
MDM2 (MDM2 proto-oncogene),-0.31
MDM2 (MDM2 proto-oncogene),-0.24
"LSM11 (LSM11, U7 small nuclear RNA associated)",0.74
"LSM11 (LSM11, U7 small nuclear RNA associated)",0.68
